Results: PubChem BioAssay AID2417 (National Center for Advancing Translational Sciences (NCATS), 2010)
Out of some 140,000 compounds screened, about 4,300 (3.1%) were called active. Inconclusive results, whose numbers are uncertain, are shown with a selection of clear calls.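 How the source made its calls: active means readout at or below -70, meaning at least 70% loss of cells showing the perinucleolar compartment, a nuclear body marking cancer cells; inconclusive means readout between -30 and a set limit; inactive means the rest.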

assay: High Content Assay for Compounds that inhibit the Assembly of the Perinucleolar Compartment; settings: PC3M PTB-GFP, PNC prevalence imaging, 16 h; at 10 µM; stronger effect = lower value;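 further: plate controls were DMSO wells for no effect and camptothecin positive control wells for full effect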
Summary of the method: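 Read-out is percentage of cells bearing a perinucleolar compartment, from automated 20x imaging of fixed, Hoechst-stained PC3M PTB-GFP cells. Cells were seeded 4 h, then exposed 16 h to compound (23 nl of library stock) in duplicate plates.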

| Compound | activity change (PNC), negative = inhibition |
| --- | --- |
| Cc1ccc(S(=O)(=O)Cc2ccc(C(=O)N3CCc4ccccc4C3)o2)cc1 | inactive: 34.8% |
| C(=N\c1nccs1)/c1c[nH]c2ccccc12 | inactive: 10.5% |
| CCCCC1CCC(C(=O)NC2CCS(=O)(=O)C2)CC1 (stereo unspecified) | inconclusive: -57.3% |
| COc1nc(C)ccc1-c1noc(-c2ccccn2)n1 | inactive: 5.5% |
| Cc1ccc(-n2nnnc2SCC(=O)N2CCN(C(=O)c3ccco3)CC2)c(C)c1 | active: -82.8% |
| CCOC(=O)Cc1csc(SC(C)C(=O)Nc2ccc(NC(C)=O)cc2)n1 (stereo unspecified) | inconclusive: -44.9% |
| Cc1nc(NC(=O)c2ccc([N+](=O)[O-])cc2Cl)sc1C(=O)N(C)C | inactive: 35.9% |
| O=C(O)CCCCCn1c(SCc2cc(=O)n3cc(Cl)ccc3n2)nc2ccsc2c1=O | inconclusive: -70.4% |
| COC(=O)CSc1nnc(C)n1-c1cccc(OC)c1 | active: -96.5% |
| CCN(CC)S(=O)(=O)c1cccc(-c2nnc(SCC(N)=O)n2CCc2ccccc2)c1 | inactive: -24.4% |
| COc1ccc(-n2c(N)c(-c3nc4ccccc4n3C)sc2=S)cc1 | inactive: 10.7% |
| CCOC(=O)c1ccc([N+](=O)[O-])cc1NC(C)=O | active: -92.3% |
| Cc1nc(C)c(C(=O)OCC(=O)N2CCN(c3ccccc3)CC2)s1 | inconclusive: -37.5% |
| COc1ccccc1-c1cc(C(=O)Nc2ccc(F)cc2F)no1 | inactive: -27.1% |
| C/C(=C\C(=O)C(F)(F)F)Nc1ccc(C)cc1 | inconclusive: -42.5% |
| CCOc1ccccc1NC(=O)Cn1c(=O)n(-c2ccccc2)c(=O)c2oc3ccccc3c21 | inconclusive: -36.4% |
| CC(C)c1ccc(NC(=O)COC(=O)CSc2nnc(N)s2)cc1 | inactive: -24.7% |
| Cc1ccc(C)c(C(=O)CSc2n[nH]c(C(C)C)n2)c1 | inactive: -7.53% |
| CCSc1nnc(NC(=O)C(CC)Oc2ccccc2)s1 (stereo unspecified) | inactive: 67.9% |
| O=C(NCc1ccco1)NC12CC3CC(CC(C3)C1)C2 | inconclusive: -38.2% |
| CCN1CCN(Cc2nc3c(c(=O)n(C)c(=O)n3C)n2CC(=O)c2ccccc2)CC1 | inconclusive: -38.3% |
| N#CC1=C(N)Oc2cc3ccccc3cc2C1c1cccs1 (stereo unspecified) | inconclusive: -48.8% |
| O=C(O)c1cc(S(=O)(=O)NCC2CCCO2)ccc1Cl (stereo unspecified) | inactive: 51.6% |
| CCc1ccc(CNC(=O)CN2C(=O)COc3ccccc32)cc1 | inconclusive: -39.1% |
| CCCCCCCC1CC(CSC(=N)N)OC1=O (stereo unspecified) | inconclusive: -38.7% |
| COc1cccc(C(=O)Nc2ccc(-c3nc4ccccc4o3)c(O)c2)c1 | inconclusive: -54.8% |

For convenience, part of the list above.

| Compound | activity change (PNC), negative = inhibition |
| --- | --- |
| Cc1ccc(C)c(C(=O)CSc2n[nH]c(C(C)C)n2)c1 | inactive: -7.53% |
| CCSc1nnc(NC(=O)C(CC)Oc2ccccc2)s1 (stereo unspecified) | inactive: 67.9% |
